Experimental data reported in article PMC3357421, “Conserved Orb6 Phosphorylation Sites Are Essential for Polarized Cell Growth in Schizosaccharomyces pombe” (PLoS ONE, 2012).
No constants are given. Whether binding was seen depends on the method and setting. In cells and extracts the contact can be indirect. Some entries that bind do so weakly or less than the wild type. Tags and fused reporters may be left off the sequences shown.

How the values were obtained:
Assay in all cases: co-IP; extracts of S. pombe WT (SP199) cells co-expressing an HA-tagged and a Myc-tagged protein; HA-protein immunoprecipitated with 12CA5 (anti-HA) and protein A sepharose, 2 hours at 4°C; lysis buffer 50 mM Tris-HCl pH 7.4, 100 mM NaCl, 2 mM EDTA, 0.1% Non-Idet P-40; immunoprecipitates probed with anti-Myc (9E10)
HA-Nak1 (S. pombe) = biological target: T1, HA-Nak1 (S. pombe) (UniProt O75011)
T1 sequence: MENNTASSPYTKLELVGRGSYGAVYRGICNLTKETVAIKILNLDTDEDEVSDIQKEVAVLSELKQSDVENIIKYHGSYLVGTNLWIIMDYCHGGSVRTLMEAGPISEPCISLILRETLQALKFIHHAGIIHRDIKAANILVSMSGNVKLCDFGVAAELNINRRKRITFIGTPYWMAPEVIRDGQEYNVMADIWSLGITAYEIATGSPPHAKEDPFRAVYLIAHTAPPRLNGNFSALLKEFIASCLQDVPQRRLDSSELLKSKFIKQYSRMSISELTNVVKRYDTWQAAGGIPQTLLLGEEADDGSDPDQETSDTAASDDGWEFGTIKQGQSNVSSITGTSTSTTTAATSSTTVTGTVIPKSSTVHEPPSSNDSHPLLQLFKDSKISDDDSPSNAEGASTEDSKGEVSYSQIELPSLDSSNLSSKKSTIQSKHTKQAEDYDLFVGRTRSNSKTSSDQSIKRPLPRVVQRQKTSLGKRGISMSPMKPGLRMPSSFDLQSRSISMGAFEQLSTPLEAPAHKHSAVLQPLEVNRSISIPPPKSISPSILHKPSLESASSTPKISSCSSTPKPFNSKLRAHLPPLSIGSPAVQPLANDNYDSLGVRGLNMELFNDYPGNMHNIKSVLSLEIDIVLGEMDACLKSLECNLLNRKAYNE

HA-Nak1^1–629 (S. pombe) = biological target: T2, HA-Nak1^1–629 (S. pombe) (UniProt O75011)
T2 sequence: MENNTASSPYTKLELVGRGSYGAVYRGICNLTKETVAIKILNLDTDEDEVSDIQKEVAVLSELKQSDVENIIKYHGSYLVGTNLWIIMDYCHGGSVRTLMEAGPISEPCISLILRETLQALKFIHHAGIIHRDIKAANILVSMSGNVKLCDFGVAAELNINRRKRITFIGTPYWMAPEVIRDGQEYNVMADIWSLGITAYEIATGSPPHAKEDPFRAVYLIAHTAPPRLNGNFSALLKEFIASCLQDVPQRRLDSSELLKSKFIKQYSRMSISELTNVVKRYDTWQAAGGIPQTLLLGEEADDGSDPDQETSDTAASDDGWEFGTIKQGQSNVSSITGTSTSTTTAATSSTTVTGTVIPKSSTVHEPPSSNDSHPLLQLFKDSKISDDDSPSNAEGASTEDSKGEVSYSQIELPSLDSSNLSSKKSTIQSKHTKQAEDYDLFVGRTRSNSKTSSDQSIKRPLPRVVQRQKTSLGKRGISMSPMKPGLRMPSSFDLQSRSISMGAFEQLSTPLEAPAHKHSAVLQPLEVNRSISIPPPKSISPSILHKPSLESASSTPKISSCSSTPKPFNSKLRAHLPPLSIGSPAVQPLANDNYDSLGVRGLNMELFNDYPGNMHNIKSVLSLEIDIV

[1] = biological target: T3, HA-Nak1^554–652 (S. pombe) (UniProt O75011)
T3 sequence: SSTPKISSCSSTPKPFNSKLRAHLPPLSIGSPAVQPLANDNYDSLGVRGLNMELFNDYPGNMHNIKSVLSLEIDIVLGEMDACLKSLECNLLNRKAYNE

HA-Orb6 (S. pombe) = biological target: T4, HA-Orb6 (S. pombe) (UniProt O13310)
T4 sequence: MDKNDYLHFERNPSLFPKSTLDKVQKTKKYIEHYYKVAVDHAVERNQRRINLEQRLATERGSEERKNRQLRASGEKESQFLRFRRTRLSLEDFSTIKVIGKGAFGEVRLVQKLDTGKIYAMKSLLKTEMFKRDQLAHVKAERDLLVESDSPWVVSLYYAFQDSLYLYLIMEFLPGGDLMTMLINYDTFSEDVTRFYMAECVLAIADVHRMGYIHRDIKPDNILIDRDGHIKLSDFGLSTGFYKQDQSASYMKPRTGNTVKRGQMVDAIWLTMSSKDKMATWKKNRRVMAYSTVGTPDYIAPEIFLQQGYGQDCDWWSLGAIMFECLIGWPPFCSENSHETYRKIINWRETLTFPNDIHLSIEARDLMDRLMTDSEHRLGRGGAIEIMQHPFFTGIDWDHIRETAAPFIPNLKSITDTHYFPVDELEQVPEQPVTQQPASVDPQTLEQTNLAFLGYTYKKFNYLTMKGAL

HA-Orb6^S291A (S. pombe) = biological target: T5, HA-Orb6^S291A (S. pombe) (UniProt O13310)
T5 sequence: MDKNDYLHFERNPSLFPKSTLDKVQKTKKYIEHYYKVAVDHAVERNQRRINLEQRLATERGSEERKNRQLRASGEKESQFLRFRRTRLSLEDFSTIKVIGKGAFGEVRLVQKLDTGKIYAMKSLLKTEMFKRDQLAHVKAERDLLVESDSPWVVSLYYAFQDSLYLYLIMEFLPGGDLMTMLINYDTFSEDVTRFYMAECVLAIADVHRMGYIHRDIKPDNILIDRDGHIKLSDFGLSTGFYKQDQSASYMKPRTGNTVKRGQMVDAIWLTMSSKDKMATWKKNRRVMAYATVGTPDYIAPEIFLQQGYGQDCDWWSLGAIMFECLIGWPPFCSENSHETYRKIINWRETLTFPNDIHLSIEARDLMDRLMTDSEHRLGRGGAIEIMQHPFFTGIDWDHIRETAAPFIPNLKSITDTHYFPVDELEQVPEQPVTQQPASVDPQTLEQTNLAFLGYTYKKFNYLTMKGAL

HA-Orb6^T456A (S. pombe) = biological target: T6, HA-Orb6^T456A (S. pombe) (UniProt O13310)
T6 sequence: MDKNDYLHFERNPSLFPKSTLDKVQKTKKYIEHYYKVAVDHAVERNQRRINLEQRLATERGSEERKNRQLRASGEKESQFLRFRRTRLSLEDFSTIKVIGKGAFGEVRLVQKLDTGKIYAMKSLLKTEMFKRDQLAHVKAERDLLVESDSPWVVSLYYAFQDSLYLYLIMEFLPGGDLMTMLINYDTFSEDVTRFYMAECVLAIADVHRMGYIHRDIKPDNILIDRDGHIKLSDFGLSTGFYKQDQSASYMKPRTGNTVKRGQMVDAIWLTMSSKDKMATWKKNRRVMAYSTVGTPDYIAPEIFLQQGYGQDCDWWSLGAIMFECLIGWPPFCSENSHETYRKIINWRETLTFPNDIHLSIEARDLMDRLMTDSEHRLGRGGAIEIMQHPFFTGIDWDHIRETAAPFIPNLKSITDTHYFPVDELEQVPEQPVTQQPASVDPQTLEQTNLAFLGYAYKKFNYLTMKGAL

Measured: binding

B1: GST-Orb6 (enzyme, S. pombe, UniProt O13310 1-469, looked up)
chain: MDKNDYLHFERNPSLFPKSTLDKVQKTKKYIEHYYKVAVDHAVERNQRRINLEQRLATERGSEERKNRQLRASGEKESQFLRFRRTRLSLEDFSTIKVIGKGAFGEVRLVQKLDTGKIYAMKSLLKTEMFKRDQLAHVKAERDLLVESDSPWVVSLYYAFQDSLYLYLIMEFLPGGDLMTMLINYDTFSEDVTRFYMAECVLAIADVHRMGYIHRDIKPDNILIDRDGHIKLSDFGLSTGFYKQDQSASYMKPRTGNTVKRGQMVDAIWLTMSSKDKMATWKKNRRVMAYSTVGTPDYIAPEIFLQQGYGQDCDWWSLGAIMFECLIGWPPFCSENSHETYRKIINWRETLTFPNDIHLSIEARDLMDRLMTDSEHRLGRGGAIEIMQHPFFTGIDWDHIRETAAPFIPNLKSITDTHYFPVDELEQVPEQPVTQQPASVDPQTLEQTNLAFLGYTYKKFNYLTMKGAL
notes: Orb6, Ndr-related Ser/Thr kinase of fission yeast (Schizosaccharomyces pombe); PCR-amplified cDNA fragment encoding Orb6 in pGEX-5X-1 (a pGEX-6p-1 construct was also made); also called pGEX-5X-1-Orb6; source: E. coli BL21, purified (Glutathione Sepharose 4B)
binds: HA-Nak1 (S. pombe) | HA-Nak1^1–629 (S. pombe) | [1]

B2: Myc-Nak1 (enzyme, UniProt O75011 1-652)
chain: MENNTASSPYTKLELVGRGSYGAVYRGICNLTKETVAIKILNLDTDEDEVSDIQKEVAVLSELKQSDVENIIKYHGSYLVGTNLWIIMDYCHGGSVRTLMEAGPISEPCISLILRETLQALKFIHHAGIIHRDIKAANILVSMSGNVKLCDFGVAAELNINRRKRITFIGTPYWMAPEVIRDGQEYNVMADIWSLGITAYEIATGSPPHAKEDPFRAVYLIAHTAPPRLNGNFSALLKEFIASCLQDVPQRRLDSSELLKSKFIKQYSRMSISELTNVVKRYDTWQAAGGIPQTLLLGEEADDGSDPDQETSDTAASDDGWEFGTIKQGQSNVSSITGTSTSTTTAATSSTTVTGTVIPKSSTVHEPPSSNDSHPLLQLFKDSKISDDDSPSNAEGASTEDSKGEVSYSQIELPSLDSSNLSSKKSTIQSKHTKQAEDYDLFVGRTRSNSKTSSDQSIKRPLPRVVQRQKTSLGKRGISMSPMKPGLRMPSSFDLQSRSISMGAFEQLSTPLEAPAHKHSAVLQPLEVNRSISIPPPKSISPSILHKPSLESASSTPKISSCSSTPKPFNSKLRAHLPPLSIGSPAVQPLANDNYDSLGVRGLNMELFNDYPGNMHNIKSVLSLEIDIVLGEMDACLKSLECNLLNRKAYNE
binds: HA-Orb6 (S. pombe) | HA-Orb6^S291A (S. pombe) | HA-Orb6^T456A (S. pombe)
